Test results taken from paper PMC9381590.
No constants are given. Whether binding was seen depends on the method and setting. In cells and extracts the contact can be indirect. These calls come from enrichment with a bait or labelling near it, and not all partners need be listed. Values belong to the binder of their own block, whether it stands above or below them.

By UniProt entry, the sequences of proteins in these tests, tags left out. Where a name states a change or a piece, a line headed by the entry shows the natural chain unless it says otherwise.
UniProt Q13838: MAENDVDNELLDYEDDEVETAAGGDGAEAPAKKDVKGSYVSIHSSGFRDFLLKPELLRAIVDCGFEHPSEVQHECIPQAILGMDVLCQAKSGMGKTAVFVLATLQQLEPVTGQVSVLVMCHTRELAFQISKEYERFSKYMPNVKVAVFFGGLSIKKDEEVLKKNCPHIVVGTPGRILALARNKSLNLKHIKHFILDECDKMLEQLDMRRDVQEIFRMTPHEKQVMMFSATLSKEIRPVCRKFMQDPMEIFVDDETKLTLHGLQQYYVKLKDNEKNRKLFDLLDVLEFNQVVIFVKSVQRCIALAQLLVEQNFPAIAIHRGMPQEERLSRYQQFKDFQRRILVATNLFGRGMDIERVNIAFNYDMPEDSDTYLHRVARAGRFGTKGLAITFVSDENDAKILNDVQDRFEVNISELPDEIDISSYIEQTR

Target: FLAG-DDX39B (human) (UniProt Q13838)
Experiment: affinity purification with mass spectrometry; lysates of CRC cells stably expressing FLAG-vector or FLAG-DDX39B, anti-FLAG M2 magnetic beads, SDS-PAGE bands, LC-MS/MS

binding: binds
B1: SARNP (protein, UniProt P82979 1-210)
chain: MATETVELHKLKLAELKQECLARGLETKGIKQDLIHRLQAYLEEHAEEEANEEDVLGDETEEEETKPIELPVKEEEPPEKTVDVAAEKKVVKITSEIPQTERMQKRAERFNVPVSLESKKAARAARFGISSVPTKGLSSDNKPMVNLDKLKERAQRFGLNVSSISRKSEDDEKLKKRKERFGIVTSSAGTGTTEDTEAKKRKRAERFGIA

binding: binds
B2: PFKP (protein, UniProt Q01813 1-784)
chain: MDADDSRAPKGSLRKFLEHLSGAGKAIGVLTSGGDAQGMNAAVRAVVRMGIYVGAKVYFIYEGYQGMVDGGSNIAEADWESVSSILQVGGTIIGSARCQAFRTREGRLKAACNLLQRGITNLCVIGGDGSLTGANLFRKEWSGLLEELARNGQIDKEAVQKYAYLNVVGMVGSIDNDFCGTDMTIGTDSALHRIIEVVDAIMTTAQSHQRTFVLEVMGRHCGYLALVSALACGADWVFLPESPPEEGWEEQMCVKLSENRARKKRLNIIIVAEGAIDTQNKPITSEKIKELVVTQLGYDTRVTILGHVQRGGTPSAFDRILASRMGVEAVIALLEATPDTPACVVSLNGNHAVRLPLMECVQMTQDVQKAMDERRFQDAVRLRGRSFAGNLNTYKRLAIKLPDDQIPKTNCNVAVINVGAPAAGMNAAVRSAVRVGIADGHRMLAIYDGFDGFAKGQIKEIGWTDVGGWTGQGGSILGTKRVLPGKYLEEIATQMRTHSINALLIIGGFEAYLGLLELSAAREKHEEFCVPMVMVPATVSNNVPGSDFSIGADTALNTITDTCDRIKQSASGTKRRVFIIETMGGYCGYLANMGGLAAGADAAYIFEEPFDIRDLQSNVEHLTEKMKTTIQRGLVLRNESCSENYTTDFIYQLYSEEGKGVFDCRKNVLGHMQQGGAPSPFDRNFGTKISARAMEWITAKLKEARGRGKKFTTDDSICVLGISKRNVIFQPVAELKKQTDFEHRIPKEQWWLKLRPLMKILAKYKASYDVSDSGQLEHVQPWSV
